Experimental data: article doi:10.1101/2025.11.20.689626
Like-named read-outs stand apart in the source and are kept apart here. No constants are given. Whether binding was seen depends on the method and setting. In cells and extracts the contact can be indirect. Some results given as binding are weak or reduced against the parent protein; the word gives no strength.

The chains behind the UniProt entries cited, without tags or fusion partners. Where a name states a change or a piece, a line headed by the entry shows the natural chain unless it says otherwise.
UniProt O75417: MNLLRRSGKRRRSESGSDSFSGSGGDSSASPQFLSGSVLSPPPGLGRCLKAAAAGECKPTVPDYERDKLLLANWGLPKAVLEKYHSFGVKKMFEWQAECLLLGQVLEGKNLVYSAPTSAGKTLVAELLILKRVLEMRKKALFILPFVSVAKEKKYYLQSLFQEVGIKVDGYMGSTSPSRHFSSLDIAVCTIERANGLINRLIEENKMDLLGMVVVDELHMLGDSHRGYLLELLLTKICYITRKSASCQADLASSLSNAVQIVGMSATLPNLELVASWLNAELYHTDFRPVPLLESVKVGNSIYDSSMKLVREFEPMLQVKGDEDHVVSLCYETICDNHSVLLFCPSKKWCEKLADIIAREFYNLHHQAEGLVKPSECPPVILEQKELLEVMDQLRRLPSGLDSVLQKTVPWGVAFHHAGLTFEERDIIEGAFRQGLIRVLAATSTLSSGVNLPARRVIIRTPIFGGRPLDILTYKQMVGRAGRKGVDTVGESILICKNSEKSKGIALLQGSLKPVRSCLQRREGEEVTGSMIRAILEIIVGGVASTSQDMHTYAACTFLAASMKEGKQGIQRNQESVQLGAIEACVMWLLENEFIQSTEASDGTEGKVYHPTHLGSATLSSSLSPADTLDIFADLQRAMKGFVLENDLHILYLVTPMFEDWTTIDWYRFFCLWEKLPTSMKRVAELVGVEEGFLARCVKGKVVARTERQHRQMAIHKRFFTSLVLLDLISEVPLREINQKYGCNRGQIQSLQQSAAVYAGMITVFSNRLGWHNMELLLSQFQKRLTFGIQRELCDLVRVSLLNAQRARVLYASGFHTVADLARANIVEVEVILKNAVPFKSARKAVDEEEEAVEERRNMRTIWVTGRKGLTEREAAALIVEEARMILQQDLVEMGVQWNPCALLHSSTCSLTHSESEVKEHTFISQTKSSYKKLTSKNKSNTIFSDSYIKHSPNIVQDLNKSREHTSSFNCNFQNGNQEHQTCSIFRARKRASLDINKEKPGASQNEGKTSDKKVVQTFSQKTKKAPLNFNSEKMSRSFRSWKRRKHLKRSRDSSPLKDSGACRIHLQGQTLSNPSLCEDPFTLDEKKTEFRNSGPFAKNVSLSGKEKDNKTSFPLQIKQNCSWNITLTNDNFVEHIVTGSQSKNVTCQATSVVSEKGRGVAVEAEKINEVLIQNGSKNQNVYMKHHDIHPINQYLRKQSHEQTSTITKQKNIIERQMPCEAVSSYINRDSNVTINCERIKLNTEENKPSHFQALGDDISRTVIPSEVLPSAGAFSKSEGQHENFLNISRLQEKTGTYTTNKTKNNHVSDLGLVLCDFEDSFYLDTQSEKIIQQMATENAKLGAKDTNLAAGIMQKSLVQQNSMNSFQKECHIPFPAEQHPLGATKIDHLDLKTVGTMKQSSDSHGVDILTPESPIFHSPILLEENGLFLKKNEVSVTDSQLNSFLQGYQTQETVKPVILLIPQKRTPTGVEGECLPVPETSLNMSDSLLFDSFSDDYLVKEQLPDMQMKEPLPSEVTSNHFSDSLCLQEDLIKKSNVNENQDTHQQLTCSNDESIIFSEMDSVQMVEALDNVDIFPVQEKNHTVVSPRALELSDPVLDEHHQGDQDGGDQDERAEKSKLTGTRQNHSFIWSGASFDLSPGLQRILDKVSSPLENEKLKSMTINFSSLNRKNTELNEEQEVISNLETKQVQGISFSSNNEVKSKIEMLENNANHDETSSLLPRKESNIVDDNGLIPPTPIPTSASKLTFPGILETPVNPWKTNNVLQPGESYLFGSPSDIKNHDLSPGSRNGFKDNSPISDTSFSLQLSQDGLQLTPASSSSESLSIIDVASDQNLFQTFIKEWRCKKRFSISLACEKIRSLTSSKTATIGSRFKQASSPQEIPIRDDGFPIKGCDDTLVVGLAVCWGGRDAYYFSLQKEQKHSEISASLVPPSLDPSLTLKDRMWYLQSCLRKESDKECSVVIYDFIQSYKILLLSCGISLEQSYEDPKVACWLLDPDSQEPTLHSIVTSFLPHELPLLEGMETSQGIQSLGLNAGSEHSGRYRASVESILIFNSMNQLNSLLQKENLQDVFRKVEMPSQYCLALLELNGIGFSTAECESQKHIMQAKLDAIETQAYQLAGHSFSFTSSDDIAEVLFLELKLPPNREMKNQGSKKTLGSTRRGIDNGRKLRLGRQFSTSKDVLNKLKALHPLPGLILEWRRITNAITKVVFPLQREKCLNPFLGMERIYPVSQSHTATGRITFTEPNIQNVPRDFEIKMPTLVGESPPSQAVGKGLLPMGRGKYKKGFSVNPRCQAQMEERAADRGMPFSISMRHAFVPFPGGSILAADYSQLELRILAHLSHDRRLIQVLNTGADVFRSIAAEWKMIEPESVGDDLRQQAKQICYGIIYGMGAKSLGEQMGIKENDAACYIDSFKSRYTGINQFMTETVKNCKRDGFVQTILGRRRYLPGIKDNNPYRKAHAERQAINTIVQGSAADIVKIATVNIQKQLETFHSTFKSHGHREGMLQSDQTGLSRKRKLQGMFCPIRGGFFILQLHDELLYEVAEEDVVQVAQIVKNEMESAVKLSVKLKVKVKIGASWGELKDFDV
UniProt P54725: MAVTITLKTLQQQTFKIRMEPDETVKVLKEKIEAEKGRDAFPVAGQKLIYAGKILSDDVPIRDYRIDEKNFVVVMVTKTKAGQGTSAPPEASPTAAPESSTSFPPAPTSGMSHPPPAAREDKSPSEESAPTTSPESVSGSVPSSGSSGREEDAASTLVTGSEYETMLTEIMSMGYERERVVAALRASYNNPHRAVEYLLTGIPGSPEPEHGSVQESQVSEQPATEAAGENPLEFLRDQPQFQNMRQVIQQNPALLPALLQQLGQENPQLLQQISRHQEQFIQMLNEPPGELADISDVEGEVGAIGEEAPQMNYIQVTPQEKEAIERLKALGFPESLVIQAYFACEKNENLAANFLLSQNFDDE

How the values were obtained:
Test in all cases: co-IP
POLQ of Fig. S4B [1] = molecular target: POLQ of Fig. S4B (UniProt O75417)
POLQ of Fig. S4B [2] = molecular target: POLQ of Fig. S4B (UniProt O75417); remark: listed apart in the source
[3] = molecular target: 3xFLAG-tagged full-length POLQ (UniProt O75417)
[4] = molecular target: 3xFLAG-tagged full-length POLQ (UniProt O75417); remark: listed apart in the source

Row | Substance | binding (POLQ of Fig. S4B [1]) | binding (POLQ of Fig. S4B [2]) | binding [3] | binding [4]
1 | RAD23A (endogenous) (from UniProt P54725 1-363) | binds weakly | binds | – | –
2 | V5-tagged RAD23A (from UniProt P54725 1-363) | – | – | binds weakly | binds
